Many values rest on one well or one pass, so single values are uncertain.
Compound: [O-][N+](C(C1=C(C(O)=C2)NC(C(C=C3)=CC=C3Cl)C4C1C=CC4)=C2Cl)=O
Assay: melting temperature shift (compound 7 minus DMSO); higher = compound stabilises the protein
Settings: 10 µM
Description: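 Thermal proteome profiling (TMT mass spectrometry) in intact DAOY medulloblastoma cells or DAOY lysates treated with 10 µM compound 7 or DMSO, heated at 10 temperatures from 40.5 to 73.8 °C for 3 min. Melting curves were fitted with the Bioconductor TPP package, and the melting point difference between compound and vehicle is reported per protein (single curve per condition).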

Chains of the proteins cited; added tags and fusions are not shown. Lines headed by an entry give the natural chain unless they say otherwise; changes in a name come on top.
UniProt Q13315: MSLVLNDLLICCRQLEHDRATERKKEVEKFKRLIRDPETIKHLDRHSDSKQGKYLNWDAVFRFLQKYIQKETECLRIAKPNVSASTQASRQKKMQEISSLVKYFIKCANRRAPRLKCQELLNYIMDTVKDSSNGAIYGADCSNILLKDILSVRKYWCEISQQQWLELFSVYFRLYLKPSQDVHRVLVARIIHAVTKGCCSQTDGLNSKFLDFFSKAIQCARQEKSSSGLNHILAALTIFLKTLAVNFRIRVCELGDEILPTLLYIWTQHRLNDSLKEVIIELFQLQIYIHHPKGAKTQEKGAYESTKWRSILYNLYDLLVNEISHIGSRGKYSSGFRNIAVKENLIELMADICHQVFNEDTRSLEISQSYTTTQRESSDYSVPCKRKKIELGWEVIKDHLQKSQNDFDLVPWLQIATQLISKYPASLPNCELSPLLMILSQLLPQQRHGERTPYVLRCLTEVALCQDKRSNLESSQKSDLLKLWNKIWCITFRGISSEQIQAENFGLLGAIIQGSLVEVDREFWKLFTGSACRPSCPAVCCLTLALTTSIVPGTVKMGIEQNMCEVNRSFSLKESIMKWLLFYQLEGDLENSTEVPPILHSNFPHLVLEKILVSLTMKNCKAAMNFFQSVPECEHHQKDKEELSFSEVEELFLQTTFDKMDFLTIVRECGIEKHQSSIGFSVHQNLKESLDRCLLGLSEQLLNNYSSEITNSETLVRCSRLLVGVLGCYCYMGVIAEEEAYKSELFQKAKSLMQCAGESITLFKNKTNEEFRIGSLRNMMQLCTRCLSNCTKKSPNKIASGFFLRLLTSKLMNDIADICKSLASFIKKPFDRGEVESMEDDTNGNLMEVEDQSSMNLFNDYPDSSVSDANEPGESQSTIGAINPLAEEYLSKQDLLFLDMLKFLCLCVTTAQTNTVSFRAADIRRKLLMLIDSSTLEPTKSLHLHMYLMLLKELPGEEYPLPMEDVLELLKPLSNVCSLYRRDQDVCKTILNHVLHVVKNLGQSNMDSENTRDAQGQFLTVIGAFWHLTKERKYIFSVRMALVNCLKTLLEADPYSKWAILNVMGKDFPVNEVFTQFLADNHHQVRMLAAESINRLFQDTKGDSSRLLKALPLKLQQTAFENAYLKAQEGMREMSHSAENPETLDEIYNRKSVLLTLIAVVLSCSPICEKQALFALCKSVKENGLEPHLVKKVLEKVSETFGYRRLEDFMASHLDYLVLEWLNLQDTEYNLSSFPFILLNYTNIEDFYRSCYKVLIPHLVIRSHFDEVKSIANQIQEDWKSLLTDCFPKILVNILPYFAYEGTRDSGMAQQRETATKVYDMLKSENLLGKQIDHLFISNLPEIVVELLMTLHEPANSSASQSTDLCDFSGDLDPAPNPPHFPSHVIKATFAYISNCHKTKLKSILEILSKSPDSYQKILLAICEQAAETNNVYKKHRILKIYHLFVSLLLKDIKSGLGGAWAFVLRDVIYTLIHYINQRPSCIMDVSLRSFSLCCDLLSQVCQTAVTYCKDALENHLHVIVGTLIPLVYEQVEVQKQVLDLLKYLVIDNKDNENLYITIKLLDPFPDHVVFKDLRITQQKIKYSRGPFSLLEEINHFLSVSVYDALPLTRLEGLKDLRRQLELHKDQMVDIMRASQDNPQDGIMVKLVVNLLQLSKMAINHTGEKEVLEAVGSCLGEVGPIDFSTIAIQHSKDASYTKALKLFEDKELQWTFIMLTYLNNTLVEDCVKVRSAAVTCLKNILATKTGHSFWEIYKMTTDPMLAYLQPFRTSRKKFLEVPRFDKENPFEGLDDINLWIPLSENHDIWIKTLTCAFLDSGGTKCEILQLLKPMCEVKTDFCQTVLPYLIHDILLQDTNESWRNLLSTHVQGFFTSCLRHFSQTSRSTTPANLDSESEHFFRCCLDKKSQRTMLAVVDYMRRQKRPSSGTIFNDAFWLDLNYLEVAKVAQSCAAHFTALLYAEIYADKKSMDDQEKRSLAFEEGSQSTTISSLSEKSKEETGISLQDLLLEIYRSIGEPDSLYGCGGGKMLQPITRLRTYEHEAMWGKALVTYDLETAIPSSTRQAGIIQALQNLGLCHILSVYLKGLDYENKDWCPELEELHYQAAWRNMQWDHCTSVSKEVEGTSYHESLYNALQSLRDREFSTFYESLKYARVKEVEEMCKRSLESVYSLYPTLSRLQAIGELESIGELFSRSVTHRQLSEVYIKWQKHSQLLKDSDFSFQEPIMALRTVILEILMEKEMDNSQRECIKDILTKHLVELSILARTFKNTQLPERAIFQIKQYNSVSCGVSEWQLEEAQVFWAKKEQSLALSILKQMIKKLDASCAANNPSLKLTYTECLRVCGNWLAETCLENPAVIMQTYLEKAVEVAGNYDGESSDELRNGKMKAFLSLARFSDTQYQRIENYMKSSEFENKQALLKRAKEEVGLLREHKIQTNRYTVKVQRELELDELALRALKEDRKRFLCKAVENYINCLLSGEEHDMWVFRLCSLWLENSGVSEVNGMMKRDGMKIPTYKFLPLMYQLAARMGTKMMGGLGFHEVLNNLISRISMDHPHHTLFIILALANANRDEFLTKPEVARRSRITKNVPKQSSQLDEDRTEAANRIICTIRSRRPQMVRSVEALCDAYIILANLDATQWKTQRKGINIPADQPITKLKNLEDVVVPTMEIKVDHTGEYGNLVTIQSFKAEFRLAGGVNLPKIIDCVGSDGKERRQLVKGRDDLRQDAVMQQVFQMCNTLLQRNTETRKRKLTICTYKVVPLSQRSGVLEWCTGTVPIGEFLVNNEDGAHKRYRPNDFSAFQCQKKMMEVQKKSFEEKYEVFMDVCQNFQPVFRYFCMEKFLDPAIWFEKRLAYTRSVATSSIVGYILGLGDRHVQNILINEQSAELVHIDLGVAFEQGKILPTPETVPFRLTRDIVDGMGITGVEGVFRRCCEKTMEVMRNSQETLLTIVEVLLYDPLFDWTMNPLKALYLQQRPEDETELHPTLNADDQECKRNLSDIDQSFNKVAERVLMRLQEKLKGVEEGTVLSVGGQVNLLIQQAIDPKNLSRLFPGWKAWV
UniProt Q9NR45: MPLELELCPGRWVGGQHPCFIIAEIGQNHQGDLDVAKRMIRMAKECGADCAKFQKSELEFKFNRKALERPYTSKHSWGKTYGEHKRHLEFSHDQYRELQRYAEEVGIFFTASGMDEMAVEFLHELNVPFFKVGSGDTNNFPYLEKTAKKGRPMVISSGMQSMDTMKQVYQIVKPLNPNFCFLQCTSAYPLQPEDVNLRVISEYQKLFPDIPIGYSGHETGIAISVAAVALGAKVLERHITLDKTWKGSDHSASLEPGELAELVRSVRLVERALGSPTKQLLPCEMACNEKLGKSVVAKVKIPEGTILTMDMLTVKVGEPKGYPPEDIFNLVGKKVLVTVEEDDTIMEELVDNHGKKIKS
UniProt P00492: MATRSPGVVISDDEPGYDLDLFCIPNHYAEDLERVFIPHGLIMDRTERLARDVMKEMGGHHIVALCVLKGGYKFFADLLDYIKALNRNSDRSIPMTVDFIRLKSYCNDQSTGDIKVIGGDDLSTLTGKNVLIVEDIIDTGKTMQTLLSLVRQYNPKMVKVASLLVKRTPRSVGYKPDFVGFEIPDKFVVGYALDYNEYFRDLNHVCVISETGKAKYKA
UniProt Q6P1A2: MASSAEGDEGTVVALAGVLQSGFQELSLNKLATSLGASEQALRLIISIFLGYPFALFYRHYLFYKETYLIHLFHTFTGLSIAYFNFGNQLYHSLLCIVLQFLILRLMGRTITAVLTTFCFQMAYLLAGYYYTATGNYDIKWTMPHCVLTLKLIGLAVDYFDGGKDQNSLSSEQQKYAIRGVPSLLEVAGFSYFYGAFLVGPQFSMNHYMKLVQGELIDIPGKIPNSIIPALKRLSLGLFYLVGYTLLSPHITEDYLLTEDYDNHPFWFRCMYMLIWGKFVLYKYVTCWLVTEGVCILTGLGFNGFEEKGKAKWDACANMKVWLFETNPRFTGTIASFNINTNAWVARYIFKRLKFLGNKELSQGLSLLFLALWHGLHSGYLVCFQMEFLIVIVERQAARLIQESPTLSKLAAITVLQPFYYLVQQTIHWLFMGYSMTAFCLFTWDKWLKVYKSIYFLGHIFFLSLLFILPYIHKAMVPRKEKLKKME
UniProt P62937, whole entry, looked up: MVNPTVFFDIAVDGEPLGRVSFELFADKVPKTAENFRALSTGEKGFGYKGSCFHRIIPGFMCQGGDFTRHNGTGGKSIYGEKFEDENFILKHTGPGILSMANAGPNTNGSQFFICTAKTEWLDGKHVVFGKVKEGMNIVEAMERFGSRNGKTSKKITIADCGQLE
UniProt Q9BTC0, whole entry: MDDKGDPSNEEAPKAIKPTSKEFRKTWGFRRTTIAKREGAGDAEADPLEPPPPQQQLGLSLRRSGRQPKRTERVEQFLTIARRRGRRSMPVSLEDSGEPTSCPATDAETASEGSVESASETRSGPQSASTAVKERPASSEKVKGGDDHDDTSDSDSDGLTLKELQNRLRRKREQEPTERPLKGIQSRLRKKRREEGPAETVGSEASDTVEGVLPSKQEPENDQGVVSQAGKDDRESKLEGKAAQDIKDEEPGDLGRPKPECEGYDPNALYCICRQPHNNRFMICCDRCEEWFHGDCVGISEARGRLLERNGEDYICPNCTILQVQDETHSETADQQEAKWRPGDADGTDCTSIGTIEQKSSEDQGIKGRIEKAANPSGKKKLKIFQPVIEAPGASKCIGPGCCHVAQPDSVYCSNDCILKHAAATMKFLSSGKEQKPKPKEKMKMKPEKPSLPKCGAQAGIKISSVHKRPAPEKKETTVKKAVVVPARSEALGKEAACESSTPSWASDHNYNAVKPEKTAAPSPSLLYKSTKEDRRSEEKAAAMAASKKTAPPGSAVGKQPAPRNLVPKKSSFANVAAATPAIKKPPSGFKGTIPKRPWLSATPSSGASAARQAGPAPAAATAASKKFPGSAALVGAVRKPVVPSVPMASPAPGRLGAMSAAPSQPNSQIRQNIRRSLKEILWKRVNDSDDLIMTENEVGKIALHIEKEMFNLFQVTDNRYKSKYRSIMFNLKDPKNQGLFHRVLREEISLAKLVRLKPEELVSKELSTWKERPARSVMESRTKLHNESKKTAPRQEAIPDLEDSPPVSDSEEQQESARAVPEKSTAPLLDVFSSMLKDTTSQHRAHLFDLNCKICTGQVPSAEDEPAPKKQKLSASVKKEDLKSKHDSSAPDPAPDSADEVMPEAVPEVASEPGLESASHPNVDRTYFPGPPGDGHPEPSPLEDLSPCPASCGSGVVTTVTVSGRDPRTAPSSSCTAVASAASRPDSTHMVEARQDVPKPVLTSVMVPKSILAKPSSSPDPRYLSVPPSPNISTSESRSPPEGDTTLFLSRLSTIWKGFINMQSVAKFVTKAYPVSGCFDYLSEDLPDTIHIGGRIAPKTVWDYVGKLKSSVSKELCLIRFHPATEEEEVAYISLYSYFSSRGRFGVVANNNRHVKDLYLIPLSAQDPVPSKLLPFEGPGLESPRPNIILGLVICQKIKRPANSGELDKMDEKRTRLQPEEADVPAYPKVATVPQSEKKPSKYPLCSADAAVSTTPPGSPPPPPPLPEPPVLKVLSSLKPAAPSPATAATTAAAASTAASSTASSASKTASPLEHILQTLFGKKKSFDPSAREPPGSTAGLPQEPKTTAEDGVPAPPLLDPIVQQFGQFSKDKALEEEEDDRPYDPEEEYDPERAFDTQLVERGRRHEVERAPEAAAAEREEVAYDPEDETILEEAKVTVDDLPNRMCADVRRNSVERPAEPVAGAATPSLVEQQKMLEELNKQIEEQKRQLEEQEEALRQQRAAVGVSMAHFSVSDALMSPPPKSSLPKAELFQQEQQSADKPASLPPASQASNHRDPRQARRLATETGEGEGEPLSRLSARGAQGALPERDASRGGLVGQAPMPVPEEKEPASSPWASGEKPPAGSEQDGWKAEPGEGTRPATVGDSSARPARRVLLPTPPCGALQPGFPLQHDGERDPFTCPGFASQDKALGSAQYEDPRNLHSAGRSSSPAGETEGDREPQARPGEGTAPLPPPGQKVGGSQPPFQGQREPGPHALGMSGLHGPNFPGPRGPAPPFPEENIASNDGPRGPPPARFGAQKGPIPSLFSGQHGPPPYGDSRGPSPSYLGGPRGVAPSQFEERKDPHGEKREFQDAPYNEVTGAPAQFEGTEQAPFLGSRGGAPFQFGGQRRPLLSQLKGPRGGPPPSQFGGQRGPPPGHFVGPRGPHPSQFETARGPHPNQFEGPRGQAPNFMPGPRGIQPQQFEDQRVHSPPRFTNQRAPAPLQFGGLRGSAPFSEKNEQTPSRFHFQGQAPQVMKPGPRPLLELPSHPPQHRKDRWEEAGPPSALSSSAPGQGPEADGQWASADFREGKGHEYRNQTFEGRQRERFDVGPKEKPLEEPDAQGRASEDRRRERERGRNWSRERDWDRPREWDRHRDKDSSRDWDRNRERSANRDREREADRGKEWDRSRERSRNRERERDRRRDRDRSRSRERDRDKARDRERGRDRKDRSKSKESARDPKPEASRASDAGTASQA

[1] = system: DAOY cell lysate, treatment time: 20 min, 4 °C
[2] = system: intact DAOY cells, treatment time: 90 min, 37 °C

Row | Target | melting temperature shift [1] [°C] | melting temperature shift [2] [°C]
1 | USP14 (UniProt P54578) | -0.347 | 0.186
2 | RPL3 (UniProt P39023) | 0.0412 | -0.498
3 | SNX15 (UniProt Q9NRS6) | 2.02 | –
4 | GALNT2 (UniProt Q10471) | 1.38 | -0.648
5 | ZYX (UniProt Q15942) | -3.73 | –
6 | USP39 (UniProt Q53GS9) | 0.268 | 1.69
7 | UniProt Q9Y6H8 | -2.34 | –
8 | FHL2 (UniProt Q14192) | -0.924 | 0.451
9 | UniProt Q6P1J6 | -0.0148 | –
10 | RAD1 (UniProt O60671) | – | -0.625
11 | UniProt Q9BQ24 | 4.29 | –
12 | SYAP1 (UniProt Q96A49) | 0.603 | -0.535
13 | TTC13 (UniProt Q8NBP0) | – | -2.66
14 | UniProt Q12791 | 1.42 | -0.922
15 | NDUFS7 (UniProt O75251) | -0.221 | -0.635
16 | ERI3 (UniProt O43414) | – | 0.843
17 | GSE1 (UniProt Q14687) | 1.12 | –
18 | CTSL (UniProt P07711) | -0.603 | -0.0645
19 | UniProt P68400 | -0.2 | -0.448
20 | RAP1B (UniProt P61224) | 2.1 | -0.956
21 | UniProt Q4KWH8 | 0.704 | -0.144
22 | UniProt P49221 | – | 0.338
23 | EXOG (UniProt Q9Y2C4) | 3.69 | -1.57

Row | Target | melting temperature shift [1] [°C] | melting temperature shift [2] [°C]
24 | UniProt Q9UGJ0 | -0.255 | -1.18
25 | UniProt Q6SPF0 | 3.13 | –
26 | SRFBP1 (UniProt Q8NEF9) | 0.7 | –
27 | ATM (UniProt Q13315) | -0.273 | -0.954
28 | C5ORF51 (UniProt A6NDU8) | 0.115 | 1.48
29 | UniProt P04350 | -0.431 | -0.167
30 | THOC5 (UniProt Q13769) | 0.658 | 2.84
31 | RPL29 (UniProt P47914) | – | -0.769
32 | GTPBP1 (UniProt O00178) | 0.244 | -1.15
33 | UniProt Q9Y250 | 0.159 | -1.01
34 | PPP2R2A (UniProt P63151) | -0.804 | -0.359
35 | ACBD3 (UniProt Q9H3P7) | 0.436 | -0.659
36 | TMEM11 (UniProt P17152) | 1.4 | 0.608
37 | POLR2G (UniProt P62487) | -0.264 | 1.84
38 | NAP1L4 (UniProt Q99733) | -0.878 | -0.0609
39 | PDCL3 (UniProt Q9H2J4) | -1.14 | 0.152
40 | UniProt Q8IW92 | – | 1.51
41 | GPN2 (UniProt Q9H9Y4) | -0.607 | –
42 | MED12 (UniProt Q93074) | -0.765 | –
43 | NOP56 (UniProt O00567) | 0.994 | –
44 | CYFIP1 (UniProt Q7L576) | -0.219 | 0.0619
45 | NANS (UniProt Q9NR45) | -0.0686 | 0.974
46 | UniProt Q8IZD4 | -2.11 | -1.17

Row | Target | melting temperature shift [1] [°C] | melting temperature shift [2] [°C]
47 | CYP1B1 (UniProt Q16678) | 0.444 | 0.0226
48 | UniProt Q9NWD8 | 0.279 | -2.26
49 | LRRC16A (UniProt Q5VZK9) | -0.498 | 0.945
50 | AP3M1 (UniProt Q9Y2T2) | -0.538 | -0.906
51 | TP53I3 (UniProt Q53FA7) | 0.478 | 2.64
52 | UniProt Q96T58 | 1.79 | –
53 | NECAP1 (UniProt Q8NC96) | -0.0211 | -0.293
54 | UniProt P32455 | 0.0728 | 0.207
55 | POLR2I (UniProt P36954) | 0.88 | –
56 | P0DMN0 (UniProt P0DMM9) | – | 0.933
57 | LACTB2 (UniProt Q53H82) | 1.18 | -1.08
58 | GPD2 (UniProt P43304) | 3.15 | 0.417
59 | SCFD1 (UniProt Q8WVM8) | 1.23 | -0.571
60 | HOOK3 (UniProt Q86VS8) | -0.745 | -0.82
61 | UniProt Q8N5M9 | 0.809 | -4.38
62 | IFRD2 (UniProt Q12894) | -2.37 | –
63 | HPRT1 (UniProt P00492) | -3.65 | –
64 | INADL (UniProt Q8NI35) | – | -0.764
65 | UniProt P0C1Z6 | 0.117 | 4.34
66 | NCAPG (UniProt Q9BPX3) | -1.19 | -0.57
67 | LPCAT3 (UniProt Q6P1A2) | – | -2.62
68 | PDCD2L (UniProt Q9BRP1) | -0.0941 | -1.19
69 | DDX18 (UniProt Q9NVP1) | – | 1.5

Whole records as entered above:
IFRD2 (UniProt Q12894) is listed with melting temperature shift [1] [°C]: -2.37
GPD2 (UniProt P43304) is listed with melting temperature shift [1] [°C]: 3.15; melting temperature shift [2] [°C]: 0.417
UniProt Q96T58 is listed with melting temperature shift [1] [°C]: 1.79
PDCD2L (UniProt Q9BRP1) is listed with melting temperature shift [1] [°C]: -0.0941; melting temperature shift [2] [°C]: -1.19

Carrying on.

Row | Target | melting temperature shift [1] [°C] | melting temperature shift [2] [°C]
70 | PPP1CA (UniProt P62136) | -0.379 | 0.319
71 | TRIP4 (UniProt Q15650) | -0.668 | 0.188
72 | UniProt Q9UL45 | -0.906 | –
73 | CISD2 (UniProt Q8N5K1) | 3.55 | –
74 | UniProt Q9BQ48 | – | -2.03
75 | ABCF1 (UniProt Q8NE71) | -0.223 | -1.54
76 | NPEPPS (UniProt P55786) | -0.508 | -0.0331
77 | CASP3 (UniProt P42574) | -0.996 | -0.215
78 | DYNC1LI2 (UniProt O43237) | -0.33 | -0.412
79 | SLC25A32 (UniProt Q9H2D1) | 0.476 | -2.04
80 | GXYLT1 (UniProt Q4G148) | -0.221 | –
81 | RSBN1 (UniProt Q5VWQ0) | 2.04 | -2.47
82 | UniProt Q6P2I7 | -1.01 | –
83 | EHMT2 (UniProt Q96KQ7) | -0.576 | 1.25
84 | PPIA (UniProt P62937) | -0.235 | 0.113
85 | PIK3C3 (UniProt Q8NEB9) | – | -0.586
86 | CTCF (UniProt P49711) | 0.766 | -1.3
87 | SLC29A1 (UniProt Q99808) | 3.74 | -1.38
88 | CBR3 (UniProt O75828) | -0.748 | -0.239
89 | WIPI2 (UniProt Q9Y4P8) | -1.74 | 0.489
90 | S100A13 (UniProt Q99584) | -1.65 | -0.8
91 | DIDO1 (UniProt Q9BTC0) | 0.0377 | -1.19
